According to patent publication US20210040201A1:
Results are given in words; binding and its absence hold for the method and conditions named. Some results given as binding are weak or reduced against the parent protein; the word gives no strength.

Sequences of proteins named here, by UniProt entry; tags and fusion partners are left off. A change or cut given only in a name is not applied to a line headed by its entry.
UniProt Q495A1: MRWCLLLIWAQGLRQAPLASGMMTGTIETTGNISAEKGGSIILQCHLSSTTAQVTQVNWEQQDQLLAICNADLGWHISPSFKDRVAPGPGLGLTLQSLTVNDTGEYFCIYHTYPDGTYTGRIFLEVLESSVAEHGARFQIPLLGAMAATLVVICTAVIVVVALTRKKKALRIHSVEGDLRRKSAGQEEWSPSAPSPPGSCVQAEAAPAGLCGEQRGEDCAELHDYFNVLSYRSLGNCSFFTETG

Assays:
[1] = biological target: Human TIGIT expressed on the surface of cells (human) (UniProt Q495A1); assay: flow cytometry, yeast-expressed antibody titrated on CHO cells stably expressing human TIGIT, PE-labelled anti-human secondary antibody, median fluorescence intensity
[2] = biological target: Human TIGIT expressed on the surface of cells (human) (UniProt Q495A1); assay: flow cytometry competition: yeast-expressed antibody titrated together with 50 nM human CD155-mouse IgG2a Fc on CHOS cells overexpressing human TIGIT; CD155 left on the cells detected with APC anti-mouse Fc
[3] = biological target: Human TIGIT expressed on the surface of cells (human) (UniProt Q495A1); assay: flow cytometry, yeast-expressed antibody on CHOS cells expressing human TIGIT
Human TIGIT-FC (human) = Human TIGIT-FC (human) (UniProt Q495A1); assay: BLI (ForteBio), Fab on human TIGIT-FC

B1: ADI-27297 (antibody, human IgG4 S228P, kappa, F234A L235A, V domains shown)
VH: QVQLVQSGAEVKKPGASVKVSCKASGYTFTSYYMHWVRQAPGQGLEWMGIINPSGGSTSYAQKFQGRVTMTRDTSTSTVYMELSSLRSEDTAVYYCARDHDIAAAGRLADYWGQGTLVTVSS
VL: DIQMTQSPSSVSASVGDRVTITCRASQGISSWLAWYQQKPGKAPKLLISAASSLQSGVPSRFSGSGSGTDFTLTISSLQPEDFATYYCQQAVILPITFGGGTKVEIKR
- binding [1]: binds
- binding [2]: binds

B2: ADI-30272 (antibody, human IgG4 S228P, kappa, F234A L235A, V domains shown)
VH: QVQLVQSGAEVKKPGASVKVSCKASGYTFTEYYMHWVRQAPGQGLEWMGIISPSAGSTSYAQKFQGRVTMTRDTSTSTVYMELSSLRSEDTAVYYCARDHDIAAAGRLADYWGQGTLVTVSS
VL: DIQMTQSPSSVSASVGDRVTITCRASQGISSWLAWYQQKPGKAPKLLISAASSLQSGVPSRFSGSGSGTDFTLTISSLQPEDFATYYCQQAVILPITFGGGTKVEIKR
- binding [1]: binds
- binding [3]: binds
- binding [2]: binds

B3: ADI-27238 (antibody, human IgG4 S228P, kappa, F234A L235A, V domains shown)
VH: QVQLVQSGAEVKKPGASVKVSCKASGYTFTSYYMSWVRQAPGQGLEWMGIINPSGGSTSYAQKFQGRVTMTRDTSTSTVYMELSSLRSEDTAVYYCARARYPSSWPYGMDVWGQGTTVTVSS
VL: DIQMTQSPSSLSASVGDRVTITCRASQSINSYLNWYQQKPGKAPKLLIYAASSLQSGVPSRFSGSGSGTDFTLTISSLQPEDFATYYCQQSLLTPFTFGGGTKVEIKR
- binding [1]: binds
- binding [2]: binds

B4: ADI-30267 (antibody, human IgG4 S228P, kappa, F234A L235A, V domains shown)
VH: QVQLVQSGAEVKKPGASVKVSCKASGYTFRSYYMSWVRQAPGQGLEWMGIIDPSGGRTSFAQKFQGRVTMTRDTSTSTVYMELSSLRSEDTAVYYCARARYPESWPYGMDVWGQGTTVTVSS
VL: DIQMTQSPSSLSASVGDRVTITCRASQSINSYLNWYQQKPGKAPKLLIYAASSLQSGVPSRFSGSGSGTDFTLTISSLQPEDFATYYCQQSLLTPFTFGGGTKVEIKR
- binding [1]: binds
- binding [3]: binds
- binding [2]: binds

B5: ADI-30263 Fab (Fab, V domains shown)
VH: QVQLVQSGAEVKKPGASVKVSCKASGYTFLSYYMNWVRQAPGQGLEWMGIIDPSGGRTSYAQKFQGRVTMTRDTSTSTVYMELSSLRSEDTAVYYCARARYPSSWPYGTDVWGQGTTVTVSS
VL: DIQMTQSPSSLSASVGDRVTITCRASQSINSYLNWYQQKPGKAPKLLIYAASSLQSGVPSRFSGSGSGTDFTLTISSLQPEDFATYYCQQSLLTPFTFGGGTKVEIKR
- binding (Human TIGIT-FC (human)): binds

B6: ADI-30267 Fab (Fab, V domains shown)
VH: QVQLVQSGAEVKKPGASVKVSCKASGYTFRSYYMSWVRQAPGQGLEWMGIIDPSGGRTSFAQKFQGRVTMTRDTSTSTVYMELSSLRSEDTAVYYCARARYPESWPYGMDVWGQGTTVTVSS
VL: DIQMTQSPSSLSASVGDRVTITCRASQSINSYLNWYQQKPGKAPKLLIYAASSLQSGVPSRFSGSGSGTDFTLTISSLQPEDFATYYCQQSLLTPFTFGGGTKVEIKR
- binding (Human TIGIT-FC (human)): binds

B7: ADI-30268 Fab (Fab, V domains shown)
VH: QVQLVQSGAEVKKPGASVKVSCKASGYTFGSYYMGWVRQAPGQGLEWMGIIDPSGGRTSYARKFQGRVTMTRDTSTSTVYMELSSLRSEDTAVYYCARARTPSSWPYGMDVWGQGTTVTVSS
VL: DIQMTQSPSSLSASVGDRVTITCRASQSINSYLNWYQQKPGKAPKLLIYAASSLQSGVPSRFSGSGSGTDFTLTISSLQPEDFATYYCQQSLLTPFTFGGGTKVEIKR
- binding (Human TIGIT-FC (human)): binds

B8: ADI-30283 Fab (Fab, V domains shown)
VH: EVQLLESGGGLVQPGGSLRLSCAASGFTFSPYGMSWVRQAPGKGLEWVSSISGSGGRTYYADSVKGRFTISRDNSKNTLYLQMNSLRAEDTAVYYCAKDPGTDSSGYYYIWRYWGQGTLVTVSS
VL: EIVMTQSPATLSVSPGERATLSCRASQSVSSNLAWYQQKPGQAPRLLIYSASTRATGIPARFSGSGSGTEFTLTISSLQSEDFAVYYCQQYVPHPPFTFGGGTKVEIKR
- binding (Human TIGIT-FC (human)): binds

B9: ADI-30286 Fab (Fab, V domains shown)
VH: EVQLLESGGGLVQPGGSLRLSCAASGFTFGPYGMSWVRQAPGKGLEWVSAISGSGASTWYADSVKGRFTISRDNSKNTLYLQMNSLRAEDTAVYYCAKDPGTHYSGYYYIWRYWGQGTLVTVSS
VL: EIVMTQSPATLSVSPGERATLSCRASQSVSSNLAWYQQKPGQAPRLLIYSASTRATGIPARFSGSGSGTEFTLTISSLQSEDFAVYYCQQYVPHPPFTFGGGTKVEIKR
- binding (Human TIGIT-FC (human)): binds

B10: ADI-30288 Fab (Fab, V domains shown)
VH: EVQLLESGGGLVQPGGSLRLSCAASGFTFGPYGMSWVRQAPGKGLEWVSAISGSGASTWHADSVKGRFTISRDNSKNTLYLQMNSLRAEDTAVYYCAKDPGTDSTGYYYIWRYWGQGTLVTVSS
VL: EIVMTQSPATLSVSPGERATLSCRASQSVSSNLAWYQQKPGQAPRLLIYSASTRATGIPARFSGSGSGTEFTLTISSLQSEDFAVYYCQQYVPHPPFTFGGGTKVEIKR
- binding (Human TIGIT-FC (human)): binds

B11: ADI-30272 Fab (Fab, V domains shown)
VH: QVQLVQSGAEVKKPGASVKVSCKASGYTFTEYYMHWVRQAPGQGLEWMGIISPSAGSTSYAQKFQGRVTMTRDTSTSTVYMELSSLRSEDTAVYYCARDHDIAAAGRLADYWGQGTLVTVSS
VL: DIQMTQSPSSVSASVGDRVTITCRASQGISSWLAWYQQKPGKAPKLLISAASSLQSGVPSRFSGSGSGTDFTLTISSLQPEDFATYYCQQAVILPITFGGGTKVEIKR
- binding (Human TIGIT-FC (human)): binds

B12: ADI-30278 Fab (Fab, V domains shown)
VH: QVQLVQSGAEVKKPGASVKVSCKASGYTFTEYYMHWVRQAPGQGLEWMGIISPSAGSTKYAQKFQGRVTMTRDTSTSTVYMELSSLRSEDTAVYYCARDHDIRLAGRLADYWGQGTLVTVSS
VL: DIQMTQSPSSVSASVGDRVTITCRASQGISSWLAWYQQKPGKAPKLLISAASSLQSGVPSRFSGSGSGTDFTLTISSLQPEDFATYYCQQAVILPITFGGGTKVEIKR
- binding (Human TIGIT-FC (human)): binds
